Results are given in words; binding and its absence hold for the method and conditions named. Some binding calls cover weakened binding; strength is not graded here.

Sequences of proteins named here, by UniProt entry; tags and fusion partners are left off. A change or cut given only in a name is not applied to a line headed by its entry.
UniProt Q01705: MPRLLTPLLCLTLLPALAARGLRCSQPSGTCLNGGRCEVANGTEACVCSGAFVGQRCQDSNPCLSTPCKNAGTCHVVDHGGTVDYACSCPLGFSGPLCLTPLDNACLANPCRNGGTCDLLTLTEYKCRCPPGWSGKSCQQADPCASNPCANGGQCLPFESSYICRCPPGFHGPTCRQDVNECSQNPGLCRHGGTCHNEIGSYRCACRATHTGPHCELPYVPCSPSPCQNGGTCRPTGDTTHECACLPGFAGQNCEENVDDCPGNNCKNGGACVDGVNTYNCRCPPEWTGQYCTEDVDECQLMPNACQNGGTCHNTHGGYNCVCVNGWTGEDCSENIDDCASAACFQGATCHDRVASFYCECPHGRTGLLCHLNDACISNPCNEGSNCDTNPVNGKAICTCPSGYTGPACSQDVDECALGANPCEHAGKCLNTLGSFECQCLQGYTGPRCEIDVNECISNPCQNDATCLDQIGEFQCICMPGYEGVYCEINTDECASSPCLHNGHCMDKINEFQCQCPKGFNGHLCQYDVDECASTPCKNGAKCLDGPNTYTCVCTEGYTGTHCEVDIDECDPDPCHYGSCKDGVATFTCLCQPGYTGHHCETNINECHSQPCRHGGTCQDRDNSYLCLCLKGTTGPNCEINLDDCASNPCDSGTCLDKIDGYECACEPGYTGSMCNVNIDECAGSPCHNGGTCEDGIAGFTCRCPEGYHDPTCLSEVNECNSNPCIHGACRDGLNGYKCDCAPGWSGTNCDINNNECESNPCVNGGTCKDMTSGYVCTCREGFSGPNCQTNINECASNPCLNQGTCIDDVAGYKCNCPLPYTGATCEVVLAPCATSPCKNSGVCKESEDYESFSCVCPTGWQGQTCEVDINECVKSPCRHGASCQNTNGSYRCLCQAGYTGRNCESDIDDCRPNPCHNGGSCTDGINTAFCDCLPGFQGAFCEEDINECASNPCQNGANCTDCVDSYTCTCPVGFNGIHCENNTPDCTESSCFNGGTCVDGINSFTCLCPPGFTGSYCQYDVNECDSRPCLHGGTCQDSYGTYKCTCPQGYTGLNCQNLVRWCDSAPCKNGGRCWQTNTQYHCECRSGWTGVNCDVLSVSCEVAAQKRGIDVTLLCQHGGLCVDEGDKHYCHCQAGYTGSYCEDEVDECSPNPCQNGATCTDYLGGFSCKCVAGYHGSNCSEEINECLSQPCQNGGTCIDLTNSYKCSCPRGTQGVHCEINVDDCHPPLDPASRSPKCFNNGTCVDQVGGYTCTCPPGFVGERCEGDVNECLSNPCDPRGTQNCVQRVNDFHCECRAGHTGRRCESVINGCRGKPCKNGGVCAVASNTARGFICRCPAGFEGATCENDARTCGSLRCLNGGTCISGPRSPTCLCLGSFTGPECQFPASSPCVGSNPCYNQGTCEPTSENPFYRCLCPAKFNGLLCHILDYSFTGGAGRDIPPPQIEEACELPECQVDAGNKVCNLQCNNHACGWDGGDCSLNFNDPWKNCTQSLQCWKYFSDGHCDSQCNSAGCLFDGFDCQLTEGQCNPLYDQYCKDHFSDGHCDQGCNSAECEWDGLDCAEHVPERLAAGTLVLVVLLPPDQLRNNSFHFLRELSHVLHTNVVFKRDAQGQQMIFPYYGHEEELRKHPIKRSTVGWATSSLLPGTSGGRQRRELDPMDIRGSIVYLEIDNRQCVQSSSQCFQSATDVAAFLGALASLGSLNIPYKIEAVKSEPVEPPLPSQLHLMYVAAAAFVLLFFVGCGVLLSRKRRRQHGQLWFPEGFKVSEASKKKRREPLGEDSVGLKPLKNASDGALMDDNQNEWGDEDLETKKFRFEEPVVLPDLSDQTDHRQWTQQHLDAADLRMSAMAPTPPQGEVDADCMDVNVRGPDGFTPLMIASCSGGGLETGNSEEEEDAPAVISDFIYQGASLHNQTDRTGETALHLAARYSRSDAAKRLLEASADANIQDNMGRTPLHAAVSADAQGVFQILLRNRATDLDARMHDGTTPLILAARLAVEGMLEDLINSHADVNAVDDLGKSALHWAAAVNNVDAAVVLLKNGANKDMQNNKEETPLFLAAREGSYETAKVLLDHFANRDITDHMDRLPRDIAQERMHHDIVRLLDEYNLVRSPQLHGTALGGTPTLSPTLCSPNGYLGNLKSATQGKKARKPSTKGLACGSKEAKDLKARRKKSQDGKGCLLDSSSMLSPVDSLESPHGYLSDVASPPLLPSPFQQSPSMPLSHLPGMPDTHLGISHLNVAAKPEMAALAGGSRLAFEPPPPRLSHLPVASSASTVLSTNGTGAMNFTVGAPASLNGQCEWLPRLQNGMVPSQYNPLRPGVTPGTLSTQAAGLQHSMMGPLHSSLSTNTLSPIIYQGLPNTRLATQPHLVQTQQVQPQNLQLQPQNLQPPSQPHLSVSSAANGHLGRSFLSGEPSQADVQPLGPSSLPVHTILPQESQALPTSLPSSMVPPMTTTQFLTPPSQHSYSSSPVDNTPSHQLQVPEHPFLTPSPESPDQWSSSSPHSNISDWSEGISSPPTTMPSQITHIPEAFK

This experiment deals with NRR of the SynNotch receptors of Example 4 (mouse) (UniProt Q01705). Nature of the experiment: inferred from the loss of anti-NRR antibody staining on HeLa cells expressing the sNRR receptor (FIG. 32A); intramolecular.

B1: Ab2 scFv integrated in the receptor as LNR4 / sNRR domain (scFv)
scFv: EVQLVESGGGLVQPGGSLRLSCAASGFTFSSYWIHWVRQAPGKGLEWVARINPPNRSNQYADSVKGRFTISADTSKNTAYLQMNSLRAEDTAVYYCARGSGFRWVMDYWGQGTLVTVSSGGSSRSSSSGGGGSGGGGDIQMTQSPSSLSASVGDRVTITCRASQDVSTAVAWYQQKPGKAPKLLIYSASFLYSGVPSRFSGSGSGTDFTLTISSLQPEDFATYYCQQFYTTPSTFGQGTKVEIK
With B1, the binding entry was “binds”.

(Values after patent US20190010245A1.)
